# In all, about 390,000 compounds went through this assay and about 4,000 (1%) were called active. The shares of active, inactive and inconclusive entries below differ from those in the screen. Calls come from the whole dose curve; as a rule, active = well fitted inhibition curve with a large enough effect; inconclusive = small, poorly fitted or top-dose-only effect, or another doubt; inactive = no such curve, though single readings can be large or run the other way. Where the call is inconclusive, the potency comes from a doubtful curve fit.
# Sequences of proteins named here, by UniProt entry; tags and fusion partners are left off. A change or cut given only in a name is not applied to a line headed by its entry.
# UniProt Q9UNA4: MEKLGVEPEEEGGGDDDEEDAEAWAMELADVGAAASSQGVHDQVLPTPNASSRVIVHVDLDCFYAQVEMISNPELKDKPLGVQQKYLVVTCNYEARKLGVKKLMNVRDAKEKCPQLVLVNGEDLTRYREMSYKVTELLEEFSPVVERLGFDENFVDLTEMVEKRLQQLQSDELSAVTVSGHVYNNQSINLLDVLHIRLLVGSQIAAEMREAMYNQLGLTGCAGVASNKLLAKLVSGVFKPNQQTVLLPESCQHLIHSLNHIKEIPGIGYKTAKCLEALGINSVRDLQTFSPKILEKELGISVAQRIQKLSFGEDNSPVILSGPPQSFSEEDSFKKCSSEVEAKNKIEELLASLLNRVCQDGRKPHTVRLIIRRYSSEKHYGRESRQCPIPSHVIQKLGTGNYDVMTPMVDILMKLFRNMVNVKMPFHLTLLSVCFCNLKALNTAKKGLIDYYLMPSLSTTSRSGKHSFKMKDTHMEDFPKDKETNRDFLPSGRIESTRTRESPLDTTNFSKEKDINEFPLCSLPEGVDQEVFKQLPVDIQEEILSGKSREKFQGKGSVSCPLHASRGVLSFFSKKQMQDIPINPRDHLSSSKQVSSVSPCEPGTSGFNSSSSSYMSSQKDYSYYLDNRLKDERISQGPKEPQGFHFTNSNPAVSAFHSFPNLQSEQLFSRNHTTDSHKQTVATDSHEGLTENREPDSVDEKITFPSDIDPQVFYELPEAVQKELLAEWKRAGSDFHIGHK
# Target: DNA polymerase iota (Homo sapiens) (UniProt Q9UNA4)
# Assay: qHTS for Inhibitors of Polymerase Iota
# Details: Pol iota fluorescent replication assay, 10 min; series mostly up to 115 µM
# Method in brief: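 Fluorescent replication assay read twice, at 0 min and 10 min after adding 50 nM (final) substrate. Enzyme (10 nM) and compounds were first incubated 15 min at room temperature; enzyme-free buffer wells were negative controls.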
# Potency is the fitted concentration of half-maximal effect.
row,Structure (SMILES),Potency
1,O=C(O)/C(=C\c1ccco1)NC(=O)c1cccc2ccccc12,"inconclusive: 17.8 µM [inhibitor, full curve]"
2,N#C/C(=C\c1ccc(/C=C(/C#N)c2nn(CCO)c(N)c2C#N)cc1)c1nn(CCO)c(N)c1C#N,inactive
3,O=C(N/N=C/c1ccc([N+](=O)[O-])o1)c1sc2ccccc2c1Cl,active: 20 µM
4,O=[N+]([O-])c1cccn2cc(-c3ccc(Br)cc3)nc12,"inconclusive: 22.4 µM [inhibitor, full curve]"
5,COc1ccc(CCNC(=O)CSc2nc3[nH]c(=O)cc(O)c3s2)cc1,"inconclusive: 10 µM [inhibitor, partial curve, poor fit]"
6,COc1cc(C2OC(c3cc(OC)c(OC)c(OC)c3)C(C)C2C)cc(OC)c1OC (stereo not drawn),"inconclusive: 79.4 µM [inhibitor, single point]"
7,Cc1cc2c(=O)n(CC(=O)NCC(=O)Nc3ccc(C(C)C)cc3)cnc2s1,"inconclusive: 22.4 µM [inhibitor, partial curve, poor fit]"
8,Cc1csc(C(C#N)C(=O)c2ccc(S(=O)(=O)N3CCCC3)cc2)n1 (stereo not drawn),"inconclusive: 15.8 µM [inhibitor, full curve, poor fit]"
9,O=C(COC(=O)Cn1cnc2ccccc21)Nc1cccc([N+](=O)[O-])c1,inactive
10,O=C1NC(=S)SC1=Cc1cc(Br)ccc1O,"inconclusive: 25.1 µM [inhibitor, partial curve, poor fit]"
11,COc1ccccc1/C=C/C(=O)c1c2c(c(C)[nH]c1=O)CCCC2,inactive
12,COc1cccc(NC(=O)CN2CCN(C(=O)c3ccco3)CC2)c1,"inconclusive: 100 µM [inhibitor, partial curve, poor fit]"
13,COC(=O)[C@@]1(C)[C@H]2C(=O)N(Cc3ccccc3)C(=O)[C@H]2[C@H]2CN=C(SCC3CC3)N21,"inconclusive: 22.4 µM [inhibitor, partial curve, poor fit]"
14,Cc1cc(C)c2c(N)c(C(=O)Nc3ccc(F)cc3)sc2n1,"inconclusive: 63.1 µM [inhibitor, partial curve, poor fit]"
15,COC(=O)c1c(NC(=O)COC(=O)c2ccc(C)s2)sc2c1CCCCC2,inactive
16,O=c1[nH]c(SCc2c(F)cccc2Cl)nc2c1CCC2,inactive
17,O=C(N/N=C/c1cccnc1)c1ccc(NC(=O)c2cccc(Cl)c2)cc1,"inconclusive: 44.7 µM [inhibitor, partial curve, poor fit]"
18,CCOC(=O)c1ccccc1NC(=O)c1sc2nc3n(c(=O)c2c1C)CCCCC3,inactive
19,O=C(CCNc1ccc(F)cc1)c1cc2ccccc2o1,inactive

# A few values from above.
# Potency with `O=[N+]([O-])c1cccn2cc(-c3ccc(Br)cc3)nc12` reads inconclusive: 22.4 µM [inhibitor, full curve]
# Potency with `O=C(COC(=O)Cn1cnc2ccccc21)Nc1cccc([N+](=O)[O-])c1` reads inactive

# (cont.)

row,Structure (SMILES),Potency
1,Cc1ccc(S(=O)(=O)N2CCN(C(=O)c3cc(S(=O)(=O)N(C)C)ccc3N3CCCC3)CC2)cc1,"inconclusive: 89.1 µM [inhibitor, single point]"
2,Cc1ccc(NC(=O)c2cc(S(=O)(=O)N3CCC4(CC3)OCCO4)ccc2F)cc1Cl,inactive
3,O=C1Nc2ccccc2Oc2cc([N+](=O)[O-])cc(Oc3ccccc3)c21,"inconclusive: 56.2 µM [inhibitor, partial curve, poor fit]"
4,S=C(NCc1ccco1)N1CCN(Cc2ccc(Cl)cc2Cl)CC1,"inconclusive: 0.708 µM [inhibitor, full curve, poor fit]"
5,Cc1ccc(NC(=O)CN2C(=O)S/C(=C\c3cc(C)n(-c4cccc(C(=O)O)c4)c3C)C2=O)cc1,"inconclusive: 31.6 µM [inhibitor, single point]"
6,O=C(N/C=C\c1ccccc1)NCc1ccc(Cl)cc1Cl,"inconclusive: 89.1 µM [inhibitor, single point]"
7,COc1ccc(OC)c(-c2nnc3n2N=C(c2ccc(OC)c(OC4CCOC4)c2)CS3)c1 (stereo not drawn),inactive
8,O=C(Nc1cccc(F)c1)N1CCCCCC1,inactive
9,O=Nc1ccc2oc(=O)ccc2c1,inactive
10,Cc1ccc2nc(NC(=O)CSc3[nH]c(=O)ncc3C)sc2c1,"inconclusive: 22.4 µM [inhibitor, partial curve, poor fit]"
11,COc1cccc(OC)c1OCCCCCCN1CCN(C)CC1,"inconclusive: 10 µM [inhibitor, partial curve]"
12,COc1cc(-c2nn3c(-c4cc(-c5ccccc5)n[nH]4)nnc3s2)cc(OC)c1OC,inactive
13,COc1cc(/C=C(\C#N)c2nc3ccc(C)cc3[nH]2)ccc1OCc1ccc(C)cc1,"inconclusive: 89.1 µM [inhibitor, single point]"
14,Cc1ccc(OCCSc2nc(-c3ccccc3C)nc3cc(=O)[nH]n23)cc1Cl,"inconclusive: 70.8 µM [inhibitor, partial curve, poor fit]"
15,Cn1c2ccccc2c2cc(/C=N/NC(=O)c3ccc(O)cc3O)ccc21,"inconclusive: 7.94 µM [inhibitor, full curve]"
16,CC1CCCN(C(=O)CN2CCN(C(=O)c3ccco3)CC2)C1 (stereo not drawn),"inconclusive: 112 µM [inhibitor, single point]"
17,O=C(OCC#CCSc1nnc(-c2cccc3ccccc23)o1)c1cnc[nH]1,"inconclusive: 17.8 µM [inhibitor, partial curve, poor fit]"
18,CC(/C=N/NC(=O)c1cc(-c2ccc(Cl)cc2)nc2ccccc12)=C\c1ccco1,"inconclusive: 44.7 µM [inhibitor, single point]"
19,O=C(O)c1ccccc1C(=O)NCc1ccc2c(c1)OCO2,"inconclusive: 39.8 µM [inhibitor, partial curve, poor fit]"

# — PubChem BioAssay AID588590 (National Center for Advancing Translational Sciences (NCATS), 2011)
